In patent publication US7012080B2, “Imidazopyridine compounds as 5-HT4 receptor agonists” (Pfizer Inc., priority 2002, dated 2006):
Some entries share one result that the patent states for a list of compounds.

Chains of the proteins cited; added tags and fusions are not shown. Lines headed by an entry give the natural chain unless they say otherwise; changes in a name come on top.
UniProt Q12809: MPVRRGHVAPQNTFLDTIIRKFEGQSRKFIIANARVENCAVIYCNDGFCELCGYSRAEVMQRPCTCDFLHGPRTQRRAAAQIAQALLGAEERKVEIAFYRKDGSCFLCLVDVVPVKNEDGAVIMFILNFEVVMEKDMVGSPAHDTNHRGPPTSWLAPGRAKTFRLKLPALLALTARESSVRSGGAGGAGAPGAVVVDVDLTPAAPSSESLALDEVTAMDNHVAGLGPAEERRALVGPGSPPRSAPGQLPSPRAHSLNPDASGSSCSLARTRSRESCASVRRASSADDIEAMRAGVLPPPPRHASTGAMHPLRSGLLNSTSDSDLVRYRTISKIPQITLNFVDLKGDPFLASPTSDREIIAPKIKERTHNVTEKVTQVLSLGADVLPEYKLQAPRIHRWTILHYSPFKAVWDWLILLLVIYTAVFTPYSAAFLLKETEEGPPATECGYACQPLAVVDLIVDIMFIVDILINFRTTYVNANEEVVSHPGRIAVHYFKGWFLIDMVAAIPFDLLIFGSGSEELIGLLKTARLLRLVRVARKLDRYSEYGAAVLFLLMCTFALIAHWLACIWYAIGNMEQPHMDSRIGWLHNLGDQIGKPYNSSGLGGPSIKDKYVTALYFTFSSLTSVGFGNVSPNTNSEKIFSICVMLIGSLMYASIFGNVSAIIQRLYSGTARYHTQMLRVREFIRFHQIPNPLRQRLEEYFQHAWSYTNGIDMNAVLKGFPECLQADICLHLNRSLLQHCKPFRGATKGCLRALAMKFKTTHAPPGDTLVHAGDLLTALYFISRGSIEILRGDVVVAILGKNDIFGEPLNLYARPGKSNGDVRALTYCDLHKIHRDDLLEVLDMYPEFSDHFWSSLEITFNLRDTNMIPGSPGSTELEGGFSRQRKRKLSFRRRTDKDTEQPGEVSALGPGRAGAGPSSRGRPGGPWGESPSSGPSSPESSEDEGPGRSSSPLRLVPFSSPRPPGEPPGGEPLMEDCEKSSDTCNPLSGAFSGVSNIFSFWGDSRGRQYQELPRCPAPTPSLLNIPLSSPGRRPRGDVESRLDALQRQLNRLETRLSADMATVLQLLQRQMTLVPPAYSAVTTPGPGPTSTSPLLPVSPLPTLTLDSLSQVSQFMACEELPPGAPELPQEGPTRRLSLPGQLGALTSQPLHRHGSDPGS

Biological target: T1, HERG potassium channel (Homo sapiens, UniProt Q12809)
T1 construct: expressed in transfected cells; host or cells: HEK293S
Test: Human dofetilide binding ([3H]-dofetilide, HERG transfected HEK293S cell membranes)
Settings: TI = Dofetilide Binding Ki [μM] / 5HT4 Binding Ki [nM] × 1000
Method: Inhibitory activity at HERG channel was estimated from affinity for HERG type potassium channel was investigated by checking [^3H]dofetilide binding, which can predict inhibitory activity at HERG channel (Eur. J. Pharmacol., 430, pp 147–148, 2001). Selected compounds with low [^3H]dofetilide binding activity were evaluated in IHERG assay to check activity at HERG channel. Introducing a branched chain group to nitrogen atom in piperidine ring contributed to potent 5-HT4 receptor agonist activities with reduced inhibitory activity at HERG channel. The compounds of the present invention may show less toxicity, good absorption, distribution and less drug-drug interaction, and have metabolic stability.
Human HERG transfected HEK293S cells were prepared and grown in-house. The collected cells were suspended in 50 mM Tris-HCl (pH 7.4 at 4° C.) and homogenized using a hand held Polytron PT 1200 disruptor set at full power for 20 sec on ice. The homogenates were centrifuged at 48,000×g at 4° C. for 20 min. […] An aliquot of membrane fractions was used for protein concentration determination using BCA protein assay kit (PIERCE) and ARVOsx plate reader (Wallac).
Binding assays were conducted in a total volume of 200 μl in 96-well plates. […] Nonspecific binding was determined by 10 μM dofetilide at the final concentration. […] Radioactivity bound to filter was counted with Wallac Betaplate counter.

Compound | TI (Defetilide/5HT4)
Cc1cn2c(N)ccc(C(=O)NCC3CCN(CC(C)C)CC3)c2n1 [Example 2, 5-Amino-N-[(1-isobutylpiperidi-4-yl)methyl]-2-methylimidazo[1,2-a]pyridine-8-carboxamide] | 5,000–19,000
CCc1cn2c(N)c(Cl)cc(C(=O)NCC3CCN(CCC(C)(C)C)CC3)c2n1 [Example 3, 5-Amino-6-chloro-N-{[1-(3,3-dimethylbutyl)piperidin-4-yl]methyl}-2-ethylimidazo[1,2-a]pyridine-8-carboxamide] | 5,000–19,000
